Measured values from patent US20240252583A1, “Compositions and Methods for Treating Persistent Postsurgical Pain” (priority 2021, published 2024).

System: post-incisional mechanical allodynia
Test: animal or person
Conditions: Rattus norvegicus, sc, 1 h, read-out: ED50, percent reversal of mechanical allodynia
Text: Data are expressed as mean±standard error of the mean (S.E.M.), and p<0.05 was accepted as statistically significant.

Structure (SMILES): CN1CC[C@]23c4c5ccc(O)c4O[C@H]2[C@@H](O)C=C[C@H]3[C@H]1C5 [morphine]
- ED50: 3.19 mg/kg
